# Results from the supplement of paper PMC4604168 (melanoma cell lines).
# Some of the results follow. Many values rest on one well or one pass, so single values are uncertain.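 Imaging used 1,536-well plates; nuclei positive for cleaved PARP by antibody were divided by total DNA-stained nuclei to yield the apoptosis fraction. Doses for screening kept most cells viable, and cell lines differ markedly in resting and induced cleaved-PARP levels.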
# Key:
# Test in all cases: cleaved PARP positive nuclei fraction relative to DMSO control; melanoma cells; higher = more apoptosis
# Settings in all cases: library dose: low library concentration; 72 h
# MZ2-MEL = test system: MZ2-MEL
# MeWo = test system: MeWo
# RPMI7951 = test system: RPMI7951
# RVH-421 = test system: RVH-421
# SkMel28 = test system: SkMel28
# SkMel2 = test system: SkMel2
# SkMel30 = test system: SkMel30
# SkMel5 = test system: SkMel5
# UACC257 = test system: UACC257
# UACC62 = test system: UACC62
# WM115 = test system: WM115
# WM1716 = test system: WM1716
# WM1745 = test system: WM1745
# WM3526 = test system: WM3526
# WM3619 = test system: WM3619
# WM451Lu = test system: WM451Lu
SMILES,cleaved PARP positive nuclei fraction (MZ2-MEL) [%],cleaved PARP positive nuclei fraction (MeWo) [%],cleaved PARP positive nuclei fraction (RPMI7951) [%],cleaved PARP positive nuclei fraction (RVH-421) [%],cleaved PARP positive nuclei fraction (SkMel28) [%],cleaved PARP positive nuclei fraction (SkMel2) [%],cleaved PARP positive nuclei fraction (SkMel30) [%],cleaved PARP positive nuclei fraction (SkMel5) [%],cleaved PARP positive nuclei fraction (UACC257) [%],cleaved PARP positive nuclei fraction (UACC62) [%],cleaved PARP positive nuclei fraction (WM115) [%],cleaved PARP positive nuclei fraction (WM1716) [%],cleaved PARP positive nuclei fraction (WM1745) [%],cleaved PARP positive nuclei fraction (WM3526) [%],cleaved PARP positive nuclei fraction (WM3619) [%],cleaved PARP positive nuclei fraction (WM451Lu) [%]
"CC(=O)c1c(C)c2cnc(Nc3ccc(N4CCNCC4)cn3)nc2n(C2CCCC2)c1=O [palbociclib] + CCN(CC)CCCCNc1ncc2cc(-c3cc(OC)cc(OC)c3)c(NC(=O)NC(C)(C)C)nc2n1 [PD173074] (first compound 0.04 µM, partner dose 0.1 µM)",88.9,51.5,133,126,179,172,103,222,216,135,131,148,124,110,134,59.1
"COCC[n+]1c2c(n(Cc3cnccn3)c1C)C(=O)c1ccccc1C2=O + CC(C)(C)c1cnc(CSc2cnc(NC(=O)C3CCNCC3)s2)o1 [SNS-032] (first compound 0.0004 µM, partner dose 0.01 µM)",201,295,72.7,179,72.3,128,73.4,235,167,314,129,227,101,60.1,101,73.8
"CC(=O)c1c(C)c2cnc(Nc3ccc(N4CCNCC4)cn3)nc2n(C2CCCC2)c1=O [palbociclib] + Cn1cc(/C=C2\C(=O)Nc3cccnc32)c2ccccc21 [GW441756] (first compound 0.04 µM, partner dose 0.4 µM)",54.3,34.9,89.5,448,95.4,29.2,60.3,213,587,88.6,225,88.7,122,99.1,108,41.9
"O=C(CCCCCCC(=O)Nc1ccccc1)NO [vorinostat] + COc1cc2c(Oc3ccc4[nH]c(C)cc4c3F)ncnc2cc1OCCCN1CCCC1 [cediranib] (first compound 0.08 µM, partner dose 0.4 µM)",57.6,55.7,159,90.4,51,159,64.3,90.2,230,76,65.2,118,83.8,121,95.7,87.1
"OCc1c[nH]c2ccccc12 [Indole-3-carbinol] + O=c1cc(-c2cccc3c2Sc2ccccc2S3)oc(N2CCOCC2)c1 [KU55933] (first compound 0.8 µM, partner dose 1 µM)",127,69.7,127,57.7,126,83.8,115,33.1,103,152,117,35.6,188,66.5,16,23.8
"C#Cc1cccc(Nc2ncnc3cc(OCCOC)c(OCCOC)cc23)c1 [erlotinib] + O=C(O)c1ccc(-c2c[nH]c3ncc(-c4ccccc4)cc23)cc1C1CCCC1 [GSK650394] (first compound 0.8 µM, partner dose 0.16 µM)",84.9,119,68.7,89.2,63.1,135,76.9,77.7,159,97,87.9,180,120,187,101,93.1
"OCCn1cc(-c2cnc3nnn(Cc4ccc5ncccc5c4)c3n2)cn1 + CN(NC(=O)CC(=O)NN(C)C(=S)c1ccccc1)C(=S)c1ccccc1 [STA4783] (first compound 1 µM, partner dose 0.006 µM)",81.7,32.2,157,73.4,62.2,64.3,65.1,133,84.4,164,265,119,96.5,187,80.6,62.3
"O=C(Nc1cccc(Cl)c1)Nc1ncc(CCNc2ncnc3ccsc23)s1 + Cn1cncc1[C@@](N)(c1ccc(Cl)cc1)c1ccc2c(c1)c(-c1cccc(Cl)c1)cc(=O)n2C [tipifarnib] (first compound 0.0008 µM, partner dose 0.01 µM)",153,149,114,97.8,137,203,62.4,122,162,102,108,111,115,71.9,102,69.2
"CC(C)(C)c1cnc(CSc2cnc(NC(=O)C3CCNCC3)s2)o1 + Cn1cncc1[C@@](N)(c1ccc(Cl)cc1)c1ccc2c(c1)c(-c1cccc(Cl)c1)cc(=O)n2C [tipifarnib] (first compound 0.01 µM, partner dose 0.01 µM)",126,179,78.5,112,68.8,145,149,86.9,279,110,148,179,86.5,66.2,115,280
"C[C@@H]1CCN(C(=O)CC#N)C[C@@H]1N(C)c1ncnc2[nH]ccc12 + O=C(Nc1cccc(Cl)c1)Nc1ncc(CCNc2ncnc3ccsc23)s1 [SNS314] (first compound 1 µM, partner dose 0.0008 µM)",126,99.7,131,61.6,16.3,171,56.2,139,36.6,78.8,154,38.8,108,60.5,89.1,118
"Cc1nc(Nc2ncc(C(=O)Nc3c(C)cccc3Cl)s2)cc(N2CCN(CCO)CC2)n1 [dasatanib] + NCC(=O)Nc1ccc(-n2nc(C(F)(F)F)cc2-c2ccc3c(ccc4ccccc43)c2)cc1 [OSU03012] (first compound 0.004 µM, partner dose 1 µM)",124,364,234,192,88.5,305,88.3,52.4,36.4,284,75.9,101,140,248,113,139
"Clc1ccc(Nc2nnc(Cc3ccncc3)c3ccccc23)cc1 [vatalanib] + COC(=O)c1sccc1S(=O)(=O)Nc1ccc(Nc2ccccc2)cc1OC [GSK0660] (first compound 2 µM, partner dose 1 µM)",131,131,99.6,74.7,140,50.3,56.7,141,126,107,123,207,81.2,68.4,109,335
"Clc1ccc(Nc2nnc(Cc3ccncc3)c3ccccc23)cc1 [vatalanib] + Cn1cc(/C=C2\C(=O)Nc3cccnc32)c2ccccc21 [GW441756] (first compound 2 µM, partner dose 0.4 µM)",75.2,132,105,96.7,142,138,29.7,226,100,168,39.6,110,114,61.7,77.1,189
"Clc1ccc(Nc2nnc(Cc3ccncc3)c3ccccc23)cc1 [vatalanib] + CC1(C)NC(=O)N(c2ccc([N+](=O)[O-])c(C(F)(F)F)c2)C1=O [nilutamide] (first compound 2 µM, partner dose 1 µM)",167,215,112,57.6,646,47.3,62.2,91,91.1,169,203,58.1,109,146,97.1,65
"CC(=O)c1c(C)c2cnc(Nc3ccc(N4CCNCC4)cn3)nc2n(C2CCCC2)c1=O [palbociclib] + Cc1cc(N2CCOCC2)cc2[nH]c(-c3c(NC[C@@H](O)c4cccc(Cl)c4)cc[nH]c3=O)nc12 [BMS536924] (first compound 0.04 µM, partner dose 0.2 µM)",99.8,43.4,255,275,98.8,59.1,128,51.6,179,165,122,66,159,98.3,153,72.6
"NC(=O)Nc1cc(-c2cccc(F)c2)sc1C(=O)N[C@H]1CCCNC1 + Cc1cc(N2CCOCC2)cc2[nH]c(-c3c(NC[C@@H](O)c4cccc(Cl)c4)cc[nH]c3=O)nc12 [BMS536924] (first compound 0.02 µM, partner dose 0.2 µM)",144,93.7,33.6,11.3,78.8,101,130,79.4,25.2,57.6,161,240,127,285,135,68.4
"C=CCn1c(=O)c2cnc(Nc3ccc(N4CCN(C)CC4)cc3)nc2n1-c1cccc(C(C)(C)O)n1 + Cc1cc(N2CCOCC2)cc2[nH]c(-c3c(NC[C@@H](O)c4cccc(Cl)c4)cc[nH]c3=O)nc12 [BMS536924] (first compound 0.02 µM, partner dose 0.2 µM)",245,111,138,83.5,69.5,131,158,123,77.4,131,91.5,72.7,145,66.3,138,55
"Cc1cc(N2CCOCC2)cc2[nH]c(-c3c(NC[C@@H](O)c4cccc(Cl)c4)cc[nH]c3=O)nc12 + Cn1cncc1[C@@](N)(c1ccc(Cl)cc1)c1ccc2c(c1)c(-c1cccc(Cl)c1)cc(=O)n2C [tipifarnib] (first compound 0.2 µM, partner dose 0.01 µM)",131,49.6,152,192,123,190,71.3,137,106,226,223,78.6,113,48.2,97.3,124
"Clc1ccc(Nc2nnc(Cc3ccncc3)c3ccccc23)cc1 [vatalanib] + CC(C)(C)c1cnc(CSc2cnc(NC(=O)C3CCNCC3)s2)o1 [SNS-032] (first compound 2 µM, partner dose 0.01 µM)",165,111,70,107,97.4,121,64.9,188,85.5,58,146,91.6,111,62.2,122,54.3

# Complete entries, quoted from the list. Values in the order: cleaved PARP positive nuclei fraction (MZ2-MEL) [%] | cleaved PARP positive nuclei fraction (MeWo) [%] | cleaved PARP positive nuclei fraction (RPMI7951) [%] | cleaved PARP positive nuclei fraction (RVH-421) [%] | cleaved PARP positive nuclei fraction (SkMel28) [%] | cleaved PARP positive nuclei fraction (SkMel2) [%] | cleaved PARP positive nuclei fraction (SkMel30) [%] | cleaved PARP positive nuclei fraction (SkMel5) [%] | cleaved PARP positive nuclei fraction (UACC257) [%] | cleaved PARP positive nuclei fraction (UACC62) [%] | cleaved PARP positive nuclei fraction (WM115) [%] | cleaved PARP positive nuclei fraction (WM1716) [%] | cleaved PARP positive nuclei fraction (WM1745) [%] | cleaved PARP positive nuclei fraction (WM3526) [%] | cleaved PARP positive nuclei fraction (WM3619) [%] | cleaved PARP positive nuclei fraction (WM451Lu) [%]
# Clc1ccc(Nc2nnc(Cc3ccncc3)c3ccccc23)cc1 [vatalanib] + Cn1cc(/C=C2\C(=O)Nc3cccnc32)c2ccccc21 [GW441756] (first compound 2 µM, partner dose 0.4 µM) in the list: 75.2 | 132 | 105 | 96.7 | 142 | 138 | 29.7 | 226 | 100 | 168 | 39.6 | 110 | 114 | 61.7 | 77.1 | 189
# Cc1cc(N2CCOCC2)cc2[nH]c(-c3c(NC[C@@H](O)c4cccc(Cl)c4)cc[nH]c3=O)nc12 + Cn1cncc1[C@@](N)(c1ccc(Cl)cc1)c1ccc2c(c1)c(-c1cccc(Cl)c1)cc(=O)n2C [tipifarnib] (first compound 0.2 µM, partner dose 0.01 µM) in the list: 131 | 49.6 | 152 | 192 | 123 | 190 | 71.3 | 137 | 106 | 226 | 223 | 78.6 | 113 | 48.2 | 97.3 | 124
